Results as given in US20190275084A1.
These are yes or no findings as the source states them, for the method shown. Some entries that bind do so weakly or less than the wild type.

The chains behind the UniProt entries cited, without tags or fusion partners. Where a name states a change or a piece, a line headed by the entry shows the natural chain unless it says otherwise.
UniProt P23510: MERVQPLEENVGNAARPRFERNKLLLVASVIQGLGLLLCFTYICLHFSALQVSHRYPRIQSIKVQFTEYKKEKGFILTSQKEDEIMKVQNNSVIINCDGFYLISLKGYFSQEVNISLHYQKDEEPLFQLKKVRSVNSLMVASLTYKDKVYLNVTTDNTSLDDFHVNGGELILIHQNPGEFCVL

B1: 10A07 (hybridoma) (antibody, V domains shown)
VH: EVQLVESGGVLVQPGGSLRLSCAASGFTFSSYIMTWVRQAPGKGLEWVSGISGSGGGTYYADSMKGRFTISRDNSKNTLYLQMNSLRVEDTAVYYCAKDRLGPITLVRGGYYYGMDVWGQGTTVTVSS
VL: DIQMTQSPSSLSASVGDRVTITCRASQSISDYLNWYQQKPGKAPKFLIYAASSLQSGVPSRFSGSGSGTDFTLTVSSLQPEDFATYYCQQSYSTPRTFGQGTRVEIK
B2: 2D10 (hybridoma) (antibody, V domains shown)
VH: EVQLVESGGGLVQPGGSLRLSCAASGFTFSNYAMNWVRQAPGKGLEWVSTISGSGGATRYADSVKGRFTISRDNSRNTVYLQMNSLRVEDTAVFYCTKDRLIMATVRGPYYYGMDVWGQGTTVTVSS
VL: DIQMTQSPSSLSASVGDRVTITCRASQSISSYLNWYQQKPGKAPNLLIYAASSLQSGVPSRFSGSGSETDFTLTISSLQPEDFATYYCQQSHSVSFTFGPGTKVDIK
B3: 9H04 (hybridoma) (antibody, V domains shown)
VH: QVQLVESGGGLVKPGGSLRLSCAASRFTLSDYYMTWIRQAPGKGLEWVSYISSSGNTIYYADSVKGRFTISRDNAKNSLYLQMNSLRAEDTAVYYCARDLSGSYWDYYYGMDVWGQGTTVTVSS
VL: AIQLTQSPSSLSTSVGDRVTIACRASQGINNALAWYQQKPGKAPKLLIYDASSLESGVPSRFSGSGSGTDFTLTISSLQPEDFATYYCQQFNSYPRTFGQGTKVEIK

Target: Cell Expressed OX40L (CHO/MEF) (human) (UniProt P23510)
Experiment: flow cytometry (FACS) on CHO-S cells expressing hOX40L

binding, binds:
B1
B2
B3
